Results: PMC1894825
Results are given in words; binding and its absence hold for the method and conditions named.

Target: recombinant Lsr2 (M. tuberculosis, Rv3597c) (M. tuberculosis) (UniProt P9WIP7)
Assay: pull-down; both purified

DNase I (from UniProt P00639 23-282) (enzyme)
binding: no binding (tested: 5 ug DNase I on 1 ug Lsr2)
